The assay deals with T1, SPTLC1, taken as the GFP11-tagged bait of the SPOTS pull-down (human) (UniProt O15269).
T1 sequence: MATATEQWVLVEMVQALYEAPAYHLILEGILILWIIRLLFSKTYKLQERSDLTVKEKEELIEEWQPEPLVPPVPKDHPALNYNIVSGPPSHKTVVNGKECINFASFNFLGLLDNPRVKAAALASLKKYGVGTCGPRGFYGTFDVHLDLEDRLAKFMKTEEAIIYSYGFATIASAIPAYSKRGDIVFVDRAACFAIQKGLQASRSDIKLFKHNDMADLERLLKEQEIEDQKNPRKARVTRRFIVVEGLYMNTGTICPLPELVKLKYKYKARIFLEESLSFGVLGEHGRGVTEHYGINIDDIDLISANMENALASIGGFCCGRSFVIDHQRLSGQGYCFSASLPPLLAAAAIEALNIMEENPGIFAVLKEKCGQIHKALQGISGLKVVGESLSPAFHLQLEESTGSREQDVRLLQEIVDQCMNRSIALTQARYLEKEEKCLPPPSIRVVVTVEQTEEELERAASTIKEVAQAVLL
Description: co-IP.

Results are given in words; binding and its absence hold for the method and conditions named. Binding seen in cells or lysates may run through a third protein. Binding calls can cover weak binding; strength is not graded here. Sequences can lack the tags named with a protein.

As to ORMDL (human (endogenous in 293T)), the binding entry is “binds”.

The record behind these values is paper doi:10.1101/055285.
